Assay results: PubChem BioAssay AID624297 (National Center for Advancing Translational Sciences (NCATS), 2012)
Hit rate of the full screen: of about 340,000 compounds, about 6,200 (1.8%) were called active. Inconclusive means that the source gave no clear call. Such entries were picked first, then a sample of the others. Calls come from the whole dose curve; as a rule, active = well fitted activation curve with a large enough effect; inconclusive = small, poorly fitted or top-dose-only effect; inactive = no such curve, though single readings can be large or run the other way. Potencies of inconclusive entries are doubtful fits and often do not repeat.

Assay: A quantitative high throughput screen for small molecules that induce DNA re-replication in SW480 colon adenocarcinoma cells. For re-replication activation: % of control where 0% means no effect. Note: nearly all actives have a fitted effect of over 55% in size.
Conditions: Hoechst DNA content imaging, 48 h; re-replication activation: at 46.1 µM (top of the series)
Summary of the method: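 Per well, 250 cells were exposed to pinned compound for 48 hr. Nuclear DNA was visualised with Hoechst (40 min, 37 C) and total object intensity recorded by fluorescence scanning.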
Potency is the fitted concentration of half-maximal effect.

| Structure (SMILES) | re-replication activation | Potency |
| --- | --- | --- |
| COc1ccccc1-c1cc2nc(C)c(CCC(=O)NCc3ccc(F)cc3)c(C)n2n1 | inactive: -2.52% |  |
| O=S(=O)(c1c(F)cccc1F)N1CCCC2CCCCC21 (configuration not stated) | inactive: -5.79% |  |
| O=C(NC(=S)Nc1ccccc1Br)c1cccnc1 | inactive: -11.2% |  |
| O=C(CCC1CCCCC1)Nc1ccc(C(=O)c2ccncc2)cc1 | inactive: -8.94% |  |
| Cc1cc(C(=O)N[C@H](c2ccccc2)[C@@]2(C)C[C@@H]2[C@@H](C)C(=O)Nc2ccc3ccccc3c2)no1 |  | inconclusive: 29.1 µM [activator, single point] |
| COc1ccccc1C(=O)C1CCCN(C(=O)C2=CC(=O)CC(C)(C)O2)C1 (configuration not stated) |  | inconclusive: 29.1 µM [activator, single point] |
| CS(=O)(=O)c1nc(S(=O)(=O)c2ccc(Cl)cc2)c(N2CCOCC2)s1 | inactive: -18.8% |  |
| CC1=NOC(=O)/C1=C/c1ccc(O)cc1 |  | inconclusive: 23.1 µM [activator, partial curve, poor fit] |
| CCC1(CCC(C)C)SC(N)=NC1=O (configuration not stated) | inactive: -1.52% |  |
| O=C(Cc1ccc(S(=O)(=O)N2CCOCC2)s1)NCCOc1ccccc1F |  | inconclusive: 0.13 µM [activator, full curve, poor fit] |
| OCC1(Cc2ccccc2)CCN(Cc2cnn(-c3ccccc3F)c2)CC1 | inactive: 7.32% |  |
| CC(Nc1nc(-c2ccc(F)cc2)cs1)c1nc2cc(Cl)c(N3CCCCC3)cc2n1CCCO (configuration not stated) |  | inconclusive: 16.4 µM [activator, partial curve, poor fit] |
| O=C(COC(=O)c1ccccn1)c1ccc([N+](=O)[O-])cc1 |  | inconclusive: 7.31 µM [activator, partial curve, poor fit] |
| COc1ccc(C2=Nc3ccccc3OC2)cc1 |  | inconclusive: 16.4 µM [activator, partial curve, poor fit] |
| COc1ccc2nc(CNC(=O)C3CCC(=O)N(CCc4ccccc4)C3)[nH]c2c1 (configuration not stated) |  | inconclusive: 20.6 µM [activator, single point] |
| CC(=O)c1ccccc1OCC(O)CN1CCN(CCN2C(=O)c3cccc4cccc(c34)C2=O)CC1 (configuration not stated) |  | inconclusive: 23.1 µM [activator, single point] |
| CCOC(=O)C1=C(C)OC(N)=C(C#N)C1c1cncc(-c2ccc(F)cc2)c1 (configuration not stated) |  | inconclusive: 29.1 µM [activator, single point] |
| Cc1nn(-c2ccccc2)c(C)c1-c1ccccc1O |  | inconclusive: 0.92 µM [activator, full curve, poor fit] |
| O=C(Nc1ccccc1C(=O)N1CCCCCC1)c1cccc([N+](=O)[O-])c1 |  | inconclusive: 18.4 µM [activator, single point] |
| O=C(N/N=C/c1ccc([N+](=O)[O-])o1)c1cn(-c2ccccc2)nc1-c1ccc(Cl)cc1 |  | inconclusive: 29.1 µM [activator, single point] |
| CN1C2CCC1CC(NS(=O)(=O)c1cccc(C(F)(F)F)c1)C2 (configuration not stated) | inactive: -11.8% |  |
| O=C(/C=C/c1ccc(Br)cc1)NC(=O)c1ccccc1O |  | inconclusive: 29.1 µM [activator, single point] |
| CCOc1ccc(C(=O)CCN2CCOCC2)cc1 |  | inconclusive: 0.651 µM [activator, full curve, poor fit] |

| Structure (SMILES) | re-replication activation | Potency |
| --- | --- | --- |
| Cc1nc(COc2ccc(C(=O)NCc3ccccc3CN3CCCCC3)cc2)cs1 |  | inconclusive: 23.1 µM [activator, single point] |
| Clc1ccc(/C=C/c2ncc3ccccn23)cc1 |  | active: 23.1 µM |
| O=c1nc2n(c3cccc(Cl)c13)CCCCC2 |  | inconclusive: 0.126 µM [activator, partial curve, poor fit] |
| Cc1ccc(NC(=O)CCC(=O)N2CCN(S(=O)(=O)c3ccc(C)cc3)CC2)cc1 |  | inconclusive: 29.1 µM [activator, single point] |
| N#CCC(=O)Nc1ccc(C(=O)OCC(=O)N(Cc2ccccc2)C2CCS(=O)(=O)C2)cc1 (configuration not stated) |  | inconclusive: 14.6 µM [activator, single point] |
| Cc1cccc(NC(=O)NNC(=O)c2sccc2-n2cccc2)c1 |  | inconclusive: 2.59 µM [activator, partial curve, poor fit] |
| C[C@@H]1C(c2cccc(Cl)c2)=NN(c2ccc(Br)cc2)[C@H]1C(=O)N1CCOC1=O |  | active: 3.26 µM |
| COc1ccc(CCNc2cc(N3CCN(C(=O)c4ccccc4OC)CC3)ccc2[N+](=O)[O-])cc1OC |  | inconclusive: 29.1 µM [activator, single point] |
| CCOC(=O)N1CCN(C(=O)COc2cc(=O)n(C)c3ccccc23)CC1 | inactive: 1.82% |  |
| CCOc1cc(CN2CCN(C(=O)c3cccc4ccccc34)CC2)ccc1OC |  | inconclusive: 32.6 µM [activator, partial curve, poor fit] |
| COC(=O)c1ccc(-c2sc3nc(N4CCOCC4)c4c(c3c2N)CC(C)(C)OC4)o1 |  | active: 0.708 µM |
| Cc1nnc(SCC(=O)NC2CC2)n1-c1ccccc1 | inactive: -7.03% |  |
| COc1cc(OC)cc(C(=O)Nc2ccc(N3CCN(C(=O)c4cccs4)CC3)cc2)c1 |  | inconclusive: 20.6 µM [activator, single point] |
| CC/C(=N/NC(=O)c1ccc2c(c1)OCO2)c1ccccc1O |  | inconclusive: 0.461 µM [activator, full curve, poor fit] |
| O=C(c1ccc(Br)o1)N1CCN(c2ccc3nnc(-c4ccccc4)n3n2)CC1 |  | inconclusive: 18.4 µM [activator, partial curve, poor fit] |
| O=c1nc(N2CCCC2)nc(N2CCCC2)[nH]1 | inactive: -1.42% |  |
| CCOC(=O)CN1C=C(c2ccc3ccccc3n2)C(C[N+](=O)[O-])c2ccccc21 (configuration not stated) |  | inconclusive: 20.6 µM [activator, single point] |
| Cc1cccc(NC(=O)c2cc(N3CCOCC3)nc3ccccc23)c1 |  | inconclusive: 29.1 µM [activator, single point] |
| O=C(N/N=C/c1ccc2c(c1)OCO2)c1cc(-c2ccncc2)nc2ccccc12 |  | active: 16.4 µM |
| Cc1ccc(C)c(NC(=O)CCC(=O)N/N=C/c2cc([N+](=O)[O-])ccc2O)c1 |  | inconclusive: 29.1 µM [activator, single point] |
| COc1ccc(-c2nc(C)c(C(C)=O)n2O)cc1[N+](=O)[O-] | inconclusive: 29.9% [activator] |  |
| CC(=O)NC(c1cc(F)c2cccnc2c1O)C1CC1 (configuration not stated) |  | inconclusive: 2.91 µM [activator, partial curve, poor fit] |
| COc1ccc2c(c1)OC[C@H]1[C@H]2N2C(=O)c3cc(Br)ccc3NC(=O)[C@@]2(C)[C@H]1c1ccccc1 |  | inconclusive: 6.51 µM [activator, full curve, poor fit] |

For convenience, 2 of the compounds above.

| Structure (SMILES) | re-replication activation | Potency |
| --- | --- | --- |
| Clc1ccc(/C=C/c2ncc3ccccn23)cc1 |  | active: 23.1 µM |
| O=c1nc2n(c3cccc(Cl)c13)CCCCC2 |  | inconclusive: 0.126 µM [activator, partial curve, poor fit] |

Sorted by count of non-hydrogen atoms (smallest number first): 3 of the compounds above.

| Structure (SMILES) | re-replication activation | Potency |
| --- | --- | --- |
| Clc1ccc(/C=C/c2ncc3ccccn23)cc1 |  | active: 23.1 µM |
| Cc1cccc(NC(=O)NNC(=O)c2sccc2-n2cccc2)c1 |  | inconclusive: 2.59 µM [activator, partial curve, poor fit] |
| N#CCC(=O)Nc1ccc(C(=O)OCC(=O)N(Cc2ccccc2)C2CCS(=O)(=O)C2)cc1 (configuration not stated) |  | inconclusive: 14.6 µM [activator, single point] |

Additional compounds follow:

| Structure (SMILES) | re-replication activation | Potency |
| --- | --- | --- |
| COc1ccc(NC(=O)COc2ccccc2Cc2ccccc2)cn1 | inactive: -6.39% |  |
| O=S(=O)(c1ccccc1Oc1ccc(Cl)cc1Cl)N1CCCCC1 | inactive: -12.7% |  |
| CCOC(=O)C1CCN(C(=O)c2ccc(OCC(=O)Nc3cccc(C(F)(F)F)c3)c(OC)c2)CC1 |  | inconclusive: 29.1 µM [activator, single point] |
| CCN(CC)CCNC(=S)NC(=O)c1cn(-c2ccccc2)nc1-c1ccc(OC)cc1 |  | inconclusive: 23.1 µM [activator, single point] |
| COc1ccc(N(CC(=O)NCCc2ccccc2)C(=O)CCC(=O)Nc2ccccn2)cc1 | inactive: -123% |  |
| O=S(=O)(/N=S1\CC=CCN1S(=O)(=O)c1ccccc1)c1ccccc1 (configuration not stated) |  | inconclusive: 18.4 µM [activator, single point] |
| Nc1cc(-c2cccc(Br)c2)nn1Cc1ccccc1 | inactive: 6.77% |  |
| Cc1ccc(Nc2nnc(SCC(O)=C(C#N)c3nc4ccccc4[nH]3)s2)c(C)c1 |  | inconclusive: 29.1 µM [activator, single point] |
| Cc1nc2c(-c3ccc(F)cc3)cnn2c2c1CCC2 |  | inconclusive: 16.4 µM [activator, partial curve, poor fit] |
| Cc1cc(C)cc(NC(=S)/N=C(\N)Nc2nc(C)c3ccccc3n2)c1 |  | inconclusive: 32.6 µM [activator, partial curve, poor fit] |
| CCc1cc(Cn2nc(-c3ccccc3)cc2C(=O)NCc2ccccc2OC)on1 |  | inconclusive: 23.1 µM [activator, partial curve, poor fit] |
| CCCCN1CC(COCc2ccccc2)Oc2ccccc2S1(=O)=O (configuration not stated) |  | inconclusive: 23.1 µM [activator, single point] |
| CC(C)(C)Nc1c2ccccc2nc2ccccc12 |  | active: 23.1 µM |
| COC(=O)c1sccc1NC(=S)N1C(C)CCCC1C (configuration not stated) |  | inconclusive: 29.1 µM [activator, single point] |
| CCC1S/C(=N/N=C/c2ccco2)N(Cc2ccccc2)C1=O (configuration not stated) | inactive: 14.8% |  |
| CCC12CN(C(=O)c3ccc(C)cc3)CC(CC)(CN(C(=O)c3ccc(C)cc3)C1)C2=O |  | inconclusive: 25.9 µM [activator, single point] |
| CC(=O)Nc1nc(-c2ccc3c(c2)CC(C)N3C(=O)C2CC2)c(C)s1 (configuration not stated) |  | inconclusive: 16.4 µM [activator, partial curve, poor fit] |
| CC(C)CC(COCc1cccc(Cl)c1)N1CCN(C(=O)c2cccc(C(F)(F)F)c2)CCC1=O (configuration not stated) |  | inconclusive: 29.1 µM [activator, partial curve, poor fit] |
| COc1ccc(-c2nnc(SCC(=O)Nc3ccccc3OC)o2)cc1 |  | inconclusive: 23.1 µM [activator, partial curve, poor fit] |
| O=C(Cc1ccccc1[N+](=O)[O-])NC1CC1 | inactive: 4.4% |  |
| Cc1nn(-c2ccc(C(=O)O)cc2)c2c1C(=O)CC(C)(C)C2 |  | inconclusive: 6.51 µM [activator, single point] |
